# In PubChem BioAssay AID493014 (National Center for Advancing Translational Sciences (NCATS), 2011):
# Some of the results follow. Further columns of the screen follow, without active or inactive calls. Most of these compounds were active or inconclusive in the main read-out, so they are no random draw. Words in brackets tell the shape of the fitted curve; partial curves, single points and poor fits give uncertain potencies.
# Experiment: qHTS Assay to Find Inhibitors of Chronic Active B-Cell Receptor Signaling
# Details: ABC-DLBCL IkBa-CBG/CBR reporter, luminescence ratio (green luciferase fused to IkBa over red control in TMD8 lymphoma cells), 4 h
# Method in brief: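 TMD8 ABC-DLBCL cells carrying doxycycline-inducible green luciferase fused to IkappaBalpha plus unfused red luciferase were exposed to compounds (up to 46 uM) for 4 hrs at 37C. Activity came from the overlap-corrected green/red luminescence ratio.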
# [1] = measured here: CBR red luminescence, cell number
# [2] = measured here: IkBa-CBG green luminescence
Compound,AC50 [1],AC50 [2]
CCc1ccccc1NC(=O)c1cc(S(=O)(=O)NCCc2ccc(OC)c(OC)c2)ccc1F,"0.562 µM [rising, full curve, poor fit]",–
O=C1CN(C(=O)c2c(F)cccc2F)C(c2ccc(F)cc2)c2cc(Br)ccc2N1 (stereo not given),"25.1 µM [falling, single point]",–
COC(=O)c1cccc(NC(=O)Cc2coc3cc(OC)ccc23)c1,"8.2 µM [falling, partial curve, poor fit]",–
O=C(CCCCCn1c(SCC(=O)c2ccccc2)nc2ccccc2c1=O)NCc1ccco1,"25.1 µM [rising, partial curve, poor fit]",–
Cc1nnc(NC(=O)c2nc(S(=O)(=O)Cc3ccccc3)ncc2Cl)s1,"15.8 µM [falling, partial curve]",–
Cc1nc(Nc2ccccc2)sc1C(=O)c1ccccc1,"14.1 µM [falling, partial curve, poor fit]",–
Cc1ccc(OCC(=O)Nc2ccc3c(c2)nc(CCN2CCOCC2)n3C)cc1,"5.62 µM [rising, single point]",–
COc1ccc(C(=O)NCC(c2ccco2)N2CCc3ccccc32)cc1 (stereo not given),"29.1 µM [rising, single point]","18.4 µM [falling, single point]"
N#C/C(=C\c1ccc(-c2cccc([N+](=O)[O-])c2)o1)C(=O)NCCN1CCOCC1,"35.5 µM [rising, single point]",–
CCCCS(=O)(=O)Nc1ccc2cn[nH]c2c1,"10 µM [falling, partial curve, poor fit]",–
COCC(=O)NC(c1ccccc1)c1ccccc1,"0.092 µM [falling, full curve, poor fit]",–
CCCNC(=O)c1nn2cc(Br)cnc2c1Cl,"12.6 µM [rising, single point]",–
Cc1coc(C)c1C(=O)CC1(O)C(=O)N(CCc2ccccc2)c2ccccc21 (stereo not given),"13 µM [falling, partial curve, poor fit]",–
COc1cccc(CNC(=O)CN(C)S(=O)(=O)c2ccc3c(c2)CC(C)N3C(C)=O)c1 (stereo not given),"31.6 µM [falling, partial curve, poor fit]",–
CCOC(=O)N1CCN(C(=O)CNC(=O)c2ccc(Cl)cc2)CC1,"35.5 µM [rising, partial curve, poor fit]",–
CC(=O)N1CCN=C1SCc1cccc(C(F)(F)F)c1,"18.4 µM [rising, partial curve]","32.6 µM [falling, partial curve, poor fit]"
COc1ccc(N2CCN(C(=O)CCc3ccc(S(=O)(=O)NC(C)C)cc3)CC2)cc1,"23.1 µM [falling, partial curve, poor fit]",–
Cc1cc(C(=O)N2CC=C(c3ccccc3)CC2)c2ccccc2n1,"29.1 µM [rising, single point]","18.4 µM [falling, single point]"
CN1CCN(C(=O)c2cc3nc(-c4ccccc4)cc(-c4ccccc4)n3n2)CC1,"20.6 µM [falling, single point]",–
Cc1c(OCC(=O)N2CCC(C(=O)O)CC2)ccc2c3c(c(=O)oc12)CCCC3,"22.4 µM [falling, single point]",–
CO/N=C/NC(=O)NOCc1ncc(C(F)(F)F)cc1Cl,"8.2 µM [rising, partial curve, poor fit]",–

# Part of the list above, with bars between the fields.
Compound | AC50 [1] | AC50 [2]
CCc1ccccc1NC(=O)c1cc(S(=O)(=O)NCCc2ccc(OC)c(OC)c2)ccc1F | 0.562 µM [rising, full curve, poor fit] | –
Cc1ccc(OCC(=O)Nc2ccc3c(c2)nc(CCN2CCOCC2)n3C)cc1 | 5.62 µM [rising, single point] | –
Cc1coc(C)c1C(=O)CC1(O)C(=O)N(CCc2ccccc2)c2ccccc21 (stereo not given) | 13 µM [falling, partial curve, poor fit] | –

# Following part.

Compound,AC50 [1],AC50 [2]
Cn1cccc1Cc1nnc(SCC(=O)Nc2nccs2)n1C,"17.8 µM [falling, partial curve]",–
O=C(O)c1ccc2c(c1)C(=O)/C(=C/c1ccccc1)C2=O,"1.84 µM [falling, full curve]",–
CCN(CC)CCN1C(=O)C(=O)/C(=C(/O)c2ccncc2)C1c1ccccc1 (stereo not given),"35.5 µM [rising, single point]",–
Cc1cc(C)cc(NC(=O)CCCN2C(=O)C(c3ccccc3)Oc3cccnc32)c1 (stereo not given),"22.4 µM [falling, single point]",–
O=C(CCc1ccccc1Cl)Nc1cc2c(cc1C(=O)O)OCCCO2,"29.1 µM [rising, single point]",–
O=C(Nc1cccc(N2C(=O)C=CC2=O)c1)c1cccs1,"20.6 µM [falling, single point]",–
COc1ccccc1/C=C/C=N/n1c(-c2ccncc2)n[nH]c1=S,"18.4 µM [falling, partial curve, poor fit]",–
COc1cc(CNC2CCCC2)c(Br)cc1OC1CCCC1,"14.1 µM [falling, single point]",–
O=C(Nn1c(O)c(C=C2N=c3ccccc3=N2)sc1=S)c1ccccc1Cl,"10.3 µM [falling, partial curve, poor fit]",–
Cc1cc(N2CCOCC2)nc2ccc(NC(=S)N3CCCCC3C)cc12 (stereo not given),"35.5 µM [falling, single point]",–
CC(=N)c1c(O)c2ccccc2oc1=O,"14.1 µM [falling, partial curve, poor fit]",–
CCOC(=O)CN1C(=O)C(Sc2n[nH]c(-c3ccc(C)cc3)n2)CCc2ccccc21 (stereo not given),"5.62 µM [falling, partial curve, poor fit]",–
C=CCN=c1sc(C(=O)OC)cc(=O)n1CC=C,"17.8 µM [falling, single point]",–
CCOc1ccc(C(=O)Nc2ccc3c(c2)OCCO3)cc1[N+](=O)[O-],"3.55 µM [falling, full curve, poor fit]",–
CCOC(=O)Cn1nnc(-c2ccc([N+](=O)[O-])cc2)n1,"20 µM [rising, single point]",–
Cc1ccc2ccc(C(Nc3ccccn3)c3ccccc3)c(O)c2n1 (stereo not given),"35.5 µM [falling, single point]",–
O=C(Nc1nnc(-c2ccccc2F)s1)Nc1ccccc1F,"10 µM [rising, partial curve, poor fit]",–
O=C(OC(C(=O)Nc1ccc(Cl)c(C(F)(F)F)c1)c1ccccc1)C1=COCCO1 (stereo not given),"29.1 µM [falling, single point]",–
Cc1ccc(S(=O)(=O)c2nc(-c3ccccc3Cl)oc2N2CCN(C)CC2)cc1,"0.231 µM [rising, full curve, poor fit]",–
N/C(Cc1ccc([N+](=O)[O-])cc1)=N\OC(=O)C1CCCCC1,"10 µM [falling, partial curve]",–
COc1ccc(NCC(O)Cn2c(C)c(C)c3ccccc32)cc1 (stereo not given),"8.91 µM [falling, partial curve]",–

Compound,AC50 [1],AC50 [2]
Clc1cccc(CSc2nnc(-c3sccc3-n3cccc3)o2)c1,"14.1 µM [rising, single point]",–
C/C(=N\NC(=S)Nc1c(C)cccc1C)c1ccc(OC(F)F)cc1,"1.03 µM [rising, full curve, poor fit]","18.4 µM [falling, single point]"
CCOC(=O)C1=C(C)N(c2ccccc2)C(=O)C1,"4.61 µM [falling, single point]",–
CC(C)(C)c1ccc(NC(=O)COC(=O)C2(C)CC2(Cl)Cl)cc1 (stereo not given),"35.5 µM [falling, single point]",–
O=C(NCc1ccccc1Cl)C(=O)NCC(c1ccco1)N1CCOCC1 (stereo not given),"14.1 µM [falling, partial curve, poor fit]",–
CC(=O)c1nnn(-c2nc(N3CCCC3)nc(N(c3ccccc3)c3ccccc3)n2)c1C,"6.51 µM [falling, single point]","5.8 µM [rising, partial curve, poor fit]"
CCCc1cc(=O)[nH]c(SCc2ccc(Cl)cc2)n1,"18.4 µM [falling, single point]",–
O=C(CCCN1C(=O)/C(=C/c2cccs2)SC1=S)Nc1cccc(O)c1,"0.316 µM [falling, full curve, poor fit]",–
N/C(=N/OCc1cccc([N+](=O)[O-])c1)c1nonc1N,"5.17 µM [rising, full curve]",–
N=C1CCCN1CC(=O)c1ccc(Br)cc1,"14.6 µM [rising, partial curve]",–
COc1ccc(CN(Cc2ccccn2)S(=O)(=O)c2ccc(-n3cnnn3)cc2)cc1,"2.82 µM [rising, partial curve, poor fit]",–
O=C(COC(=O)CNC(=O)c1ccccc1Cl)NC1CCCC1,"25.9 µM [rising, single point]",–
CCN(CC)C(=S)SSC(=S)N(CC)CC,"11.2 µM [rising, partial curve, poor fit]","0.184 µM [falling, full curve, poor fit]"
CC(=O)C1C(=O)CC(c2ccc(Cl)cc2)CC1=O (stereo not given),"12.6 µM [rising, single point]",–
CCN(CC)c1ncnc2c1sc1nc(C)cc(C)c12,"3.55 µM [rising, single point]",–
CCOCCOC(=O)C(C)Sc1n[nH]c(=O)[nH]c1=O (stereo not given),"16.4 µM [rising, partial curve, poor fit]",–
Clc1ccc(CCNc2ncnc3c2c(-c2ccccc2)cn3-c2ccccc2)cc1,"11.2 µM [rising, partial curve]",–
Cc1ccc(Nc2ncccc2C(N)=O)cc1[N+](=O)[O-],"0.411 µM [rising, full curve]",–
Oc1cc(-n2cccn2)c(O)cc1-n1cccn1,"10 µM [falling, partial curve]","15.8 µM [rising, single point]"
CCN1CCN(CC2CC3C=CC2C3)CC1 (stereo not given),"29.1 µM [falling, single point]",–
O=C(Nc1ccccc1N1CCCC1)c1cc2ccccc2o1,"0.013 µM [falling, full curve, poor fit]",–
